No constants are given. Whether binding was seen depends on the method and setting. In cells and extracts the contact can be indirect. Some binding calls cover weakened binding; strength is not graded here. Tags and fused reporters may be left off the sequences shown.
Experiments:
[1] = molecular target: T1, Protein A-tagged Sx16-T7D (phospho-mimetic mutant, truncated Sx16 lacking the transmembrane domain) (mouse) (UniProt Q8BVI5); assay: pull-down; 250 µg yeast lysate expressing HA-mVps45 incubated with 20, 15, 10, 5, 2.5 and 1 µg of PrA-tagged Sx16 species for 2 h on ice; PrA-tagged species captured on IgG-Sepharose beads, washed, eluted by boiling in SDS-PAGE sample buffer; anti-HA immunoblot; only the target purified
T1 sequence: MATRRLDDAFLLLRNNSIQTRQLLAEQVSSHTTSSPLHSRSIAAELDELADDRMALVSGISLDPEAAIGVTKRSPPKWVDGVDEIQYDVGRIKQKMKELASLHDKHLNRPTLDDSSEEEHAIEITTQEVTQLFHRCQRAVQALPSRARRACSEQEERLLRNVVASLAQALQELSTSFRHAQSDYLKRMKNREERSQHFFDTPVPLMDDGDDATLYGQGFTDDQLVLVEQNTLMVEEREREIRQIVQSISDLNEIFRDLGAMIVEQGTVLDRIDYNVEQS

[2] = molecular target: T2, Protein A-tagged Sx16 (residues 1-279 of Sx16, fused to two copies of Protein-A via a thrombin cleavage site) (mouse) (UniProt Q8BVI5); assay: as above
T2 sequence: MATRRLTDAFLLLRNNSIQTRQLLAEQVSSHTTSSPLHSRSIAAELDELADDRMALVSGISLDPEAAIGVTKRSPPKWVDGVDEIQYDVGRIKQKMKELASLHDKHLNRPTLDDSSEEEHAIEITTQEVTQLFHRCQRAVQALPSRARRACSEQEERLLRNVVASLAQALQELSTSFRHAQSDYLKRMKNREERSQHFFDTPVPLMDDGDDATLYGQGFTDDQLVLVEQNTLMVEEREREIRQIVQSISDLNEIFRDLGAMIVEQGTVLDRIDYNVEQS

B1: HA-tagged human mVps45 expressed in yeast (protein, UniProt Q9NRW7 1-570)
chain: MNVVFAVKQYISKMIEDSGPGMKVLLMDKETTGIVSMVYTQSEILQKEVYLFERIDSQNREIMKHLKAICFLRPTKENVDYIIQELRRPKYTIYFIYFSNVISKSDVKSLAEADEQEVVAEVQEFYGDYIAVNPHLFSLNILGCCQGRNWDPAQLSRTTQGLTALLLSLKKCPMIRYQLSSEAAKRLAECVKQVITKEYELFEFRRTEVPPLLLILDRCDDAITPLLNQWTYQAMVHELLGINNNRIDLSRVPGISKDLREVVLSAENDEFYANNMYLNFAEIGSNIKNLMEDFQKKKPKEQQKLESIADMKAFVENYPQFKKMSGTVSKHVTVVGELSRLVSERNLLEVSEVEQELACQNDHSSALQNIKRLLQNPKVTEFDAARLVMLYALHYERHSSNSLPGLMMDLRNKGVSEKYRKLVSAVVEYGGKRVRGSDLFSPKDAVAITKQFLKGLKGVENVYTQHQPFLHETLDHLIKGRLKENLYPYLGPSTLRDRPQDIIVFVIGGATYEEALTVYNLNRTTPGVRIVLGGTTVHNTKSFLEEVLASGLHSRSKESSQVTSRSASRR
[1]
  binding: binds
[2]
  binding: binds

From publication PMC10373645
